## Primary screen of a compound library

Mtb growth Cornell: 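Whole-cell assay for inhibitors of Mycobacterium tuberculosis growth, labelled Cornell in the record; the read-out is not stated. The concentration is filed as 10 mM, unlikely as a test dose, so the dose is not known. The record gives no direction; compounds strong in two other growth screens of this library score well above the rest, so higher reads as stronger inhibition. About 53,000 compounds were tested under these conditions; 1.7% (about 900) showed 50% or more at least once.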
Mtb heat-shock: 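Assay on Mycobacterium tuberculosis, filed only as a heat shock assay from Cornell; the read-out is not stated. The concentration is filed as 10 mM, unlikely as a test dose, so the dose is not known. Direction is inferred from retests: higher values go with stronger inhibition. Of about 69,000 compounds tested this way, about 930 (1.4%) reached 50% or more in at least one test.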

Results are given as percent effect. The controls that fix the scale are not given in the record; negative values are as filed. This is an unselected part of the compounds tested. A dash means the value is not listed here; it may have been measured.

structure | Mtb growth Cornell | Mtb heat-shock
Cn1cc(C(=O)CC2CCCN2C(=O)c2cccc3ncccc23)cn1 (stereo not given) | -20.15 | -18.21
COCCCNC(=O)Cn1nnc(-c2cc3ccccc3o2)n1 | -11.98 | -9.528
O=C(N1CCOCC1)N1CCN(CC(O)c2ccc(F)cc2)CC1 (stereo not given) | - | -8.395
O=C(C1CCCCN1Cc1nccn1CC(F)(F)F)N1CCCC1 (stereo not given) | - | -107.9
Cn1cc2ncn(C3CCN(c4ccccc4F)CC3)c(=O)c2n1 | - | -12.76
Cc1ccnc(NC(=O)C2CCCO2)c1 (stereo not given) | -29.66 | 4.857
CCOCc1ncn2c1CN(C(=O)Nc1ccc(CC)cc1)CC2 | - | -38.77
[H][C@]12CC[C@]([H])(CN(Cc3ccccc3)C1)N(Cc1cc(=O)[nH]c(=O)[nH]1)C2 | -1.779 | -10.28
O=C(CN1CCOc2ccc(Cl)cc21)NCCCn1cccn1 | - | -40.87
O=C(Cc1csc(-c2ncccn2)n1)N1CCN2CCCCC2C1 (stereo not given) | -20.79 | -30.52
CCn1c(N)nc2cc(C(=O)N3CCCN(C)CC3)cnc21 | -8.428 | 11.3
CCOCCNCc1cc(O)c2cc(C)ccc2n1 | -11.44 | 18.05
Cc1ccc(CNc2nc(O)cc(C3CC(=O)N(C)C3)n2)cc1 (stereo not given) | -0.7254 | -9.937
CN1CCCN(C(=O)NCCNc2ncccn2)CC1 | - | -18.89
CC[C@H]1CN(C(=O)c2cccnc2)CC[C@H]1CC(=O)NC1CC1 | - | -12.72
Cc1cc(C)c(CNC(=O)NC(C)c2ccc3c(c2)CCC3)c(=O)[nH]1 (stereo not given) | - | -21.21
CCC(CO)NCc1ccc(-c2ccc(F)cc2)o1.Cl (stereo not given) | 35.55 | 8.479
O=C(O)c1cc(Br)cnc1OCC1CC1 | -30.27 | 19.62
CN1CC[C@H](N(C)Cc2ccccc2)C[C@H](O)C1 | 12.68 | -12.5
O=C(Cn1cc(NC(=O)c2ccc(F)cc2F)cn1)NC1CCCC1 | -62.19 | 12.55
O=C(CCc1cc(O)no1)N1CCCC(OCc2cccnc2)C1 (stereo not given) | 11.94 | -5.771
CC(C)(C)n1ncc2c(=O)[nH]c(N3CCN(CCO)CC3)nc21 | 21.4 | 8.533
COc1ccc(OCc2cc(C(=O)N3CCCCO3)n[nH]2)c(Cl)c1 | 106.4 | -3.72
CC1CS(=O)(=O)CCN1CCCc1ccc(C(F)(F)F)cc1 (stereo not given) | 47.22 | -17.04
CN1CC(=O)N(c2ccccc2)CC12CCN(CCO)C2.O=C(O)C(F)(F)F.O=C(O)C(F)(F)F (stereo not given) | - | -6.551
CCc1csc(C2CCCN(C(=O)COc3cc(C)on3)C2)n1 (stereo not given) | 5.712 | -22.06
OC(CN1CCOCC1)c1ccc(OC(F)(F)F)cc1 (stereo not given) | 17.08 | 10.63
O=c1[nH]c(NC2CCCC2)nc2nccc(-c3ccco3)c12 | 5.592 | 14.52
CCC(=O)N1CCCN(Cc2cc(F)cc(Br)c2)CC1 | 23.58 | -7.206
Cc1cccc(OCCNC(=O)Cn2ccc(C)cc2=O)c1 | 6.976 | 9.626
Cc1nc(-c2cnn(C)c2)sc1C(=O)NCc1cccc(CN(C)C)c1 | 1.506 | -10.96
Cc1cc(CN2CCN(C(=O)c3sccc3C3CC3)CC2)no1 | - | -15.16
CCCn1cnnc1CN(C)C(=O)CCC(=O)Nc1cc(C)ccc1F | -2.074 | -13.01
CCNC(c1cccnc1)c1ccc(F)cc1F (stereo not given) | -11.45 | -4.821
CC(NC(=O)NCCCc1n[nH]c(N)c1C#N)c1cccs1 (stereo not given) | -43.42 | 3.534
Cc1ccc(N2CCOCC3(CCCN(c4ncc(F)cn4)C3)C2)nn1 (stereo not given) | -44.4 | -2.054
Fc1ccccc1CN1CCCC2(CCN(c3ncccn3)CC2)C1.O=C(O)C(F)(F)F | 17.59 | -13.33
CC(C(N)=O)N1CCN(c2ncc(Br)cn2)CC1 (stereo not given) | -11.24 | 9.184
Cc1csc2c(C3CCCN(C(=O)Cn4cncn4)C3)nc(C)n12 (stereo not given) | 24.62 | 8.724
COCCCC1CCN([C@@H]2c3ccccc3C3(CCNCC3)[C@H]2O)CC1 | -18.52 | -1.145
COc1ccccc1CNC(=O)C1=NN(c2ccc(C)cc2)C(=O)CN1 | 59.16 | 73.51
Cc1csc2c(N3CCC(NCCc4ccnn4C)CC3)ncnc12 | 8.461 | -26.79
Cn1cc(C(=O)N2CCCCC2CCc2ccc(O)cc2)cn1 (stereo not given) | 31.11 | 7.478
CC(=O)N(CCc1ccccc1)CC(=O)NC(C)(C)C#N | -42.03 | -15.83
CN(Cc1ccno1)C(=O)c1cccc(CC2CCNCC2)c1 | 12.15 | -0.07158
Cc1cccn2c(=O)cc(CN3CCCC3Cn3cccn3)nc12 (stereo not given) | - | -13.66
CSCc1cc(F)ccc1CNC(=O)N1CCC[C@@H]1CO | -33.71 | 3.365
CCOCCN1CCN(Cc2nnc(C3CC3)o2)CC1C (stereo not given) | 29.96 | -5.651
COc1ncccc1CNC(=O)N1CCC(CNC(C)=O)CC1 | 13.36 | 4.906
CCn1cc2c(n1)C(COC)CN(Cc1ccoc1)C2 (stereo not given) | -14.11 | -16.84
COc1ccc(CN2CC(O)CN(C(=O)c3ccccc3)CC2=O)cc1 (stereo not given) | -1.753 | 28.82
O=C(Nc1ccccc1)C1CN(Cc2ccco2)CC12CCOCC2.O=C(O)C(F)(F)F (stereo not given) | 4.379 | -6.343
Cc1ccn2c(F)c(C(=O)N3CCC4(CCC(=O)N(C)C4)CC3)nc2c1 | 1.943 | -6.283
CC(=O)c1cccc(OCCCC(=O)N(C)C2CCN(C)CC2)c1 | 4.814 | 8.841
O=C(NCC1(O)CCc2ccccc21)Nc1ccc2c(c1)OCO2 (stereo not given) | 27.35 | 2.109
CN(CC(=O)Nc1ccncc1)CC1CCCN1c1cccnn1 (stereo not given) | 0.1131 | -25.87
O=C(COc1coc(CN2CCCCC2)cc1=O)Nc1cccc(Cl)c1 | -7.118 | -40.59
Cc1noc(-c2cnc(NCC3CCCO3)nc2-c2ccco2)c1C (stereo not given) | 34.64 | 9.073
CC1CCCN(c2ccccc2OCC(=O)N2CCOCC2)C1 (stereo not given) | -12.03 | -19.04
CN1CCN(C2COC3(CCN(Cc4ccsc4)CC3)C2)CC1.O=C(O)C(F)(F)F.O=C(O)C(F)(F)F (stereo not given) | 4.664 | -0.7881
CCc1nnsc1C(=O)NCCCC(CC)(CC)C1OCCO1 | -2.787 | 0.0533
Cc1cc2n(n1)[C@@H](C(F)(F)F)C[C@@H](C1CCN(C(=O)C(C)C)CC1)N2 | -13.87 | -6.846
Cc1nc[nH]c1CNCc1cccnc1N(C)C1CCCCC1 | -125.1 | -1.656
Cc1cnn(CC2CN(Cc3nc(N)c4ccccc4n3)CCO2)c1 (stereo not given) | - | 8.088
CCCNCc1ncc(C)c(OC)c1C | - | -10.29
CCc1noc(CC)c1CNC(=O)Nc1ccc2[nH]nnc2c1 | - | 1.343
Cc1ccc(CN2CCC(n3cc(CN4CCC(O)CC4)nn3)CC2)s1 | -7.083 | 12.22
CCOc1cc(CNC(C)c2ccc(F)cc2)ccn1 (stereo not given) | -27.39 | 18.28
Cc1cccc(CN2C[C@@H](CN3CCCN(C)CC3)[C@@H](CO)C2)n1 | -20.85 | -14.53
Cc1cccc(N(CCC#N)S(=O)(=O)CC2CCCCO2)c1 (stereo not given) | -60.96 | -19.69
O=C(Nc1cn[nH]c1)NC1CCN(c2ccccc2OC(F)F)C1 (stereo not given) | - | -139.8
Cc1ccc(S(=O)(=O)N2CCc3nc(C4CCNCC4)ncc3C2)cc1.Cl | 4.42 | 36.79
CCC(CC)NC(=O)c1cccnc1N1CCCC1c1ccccn1 (stereo not given) | -22.16 | -37.68

Once more, the final 6:

For CCOc1cc(CNC(C)c2ccc(F)cc2)ccn1 (stereo not given) the result was Mtb growth Cornell: -27.39%; Mtb heat-shock: 18.28%.
For Cc1cccc(CN2C[C@@H](CN3CCCN(C)CC3)[C@@H](CO)C2)n1 the result was Mtb growth Cornell: -20.85%; Mtb heat-shock: -14.53%.
For Cc1cccc(N(CCC#N)S(=O)(=O)CC2CCCCO2)c1 (stereo not given) the result was Mtb growth Cornell: -60.96%; Mtb heat-shock: -19.69%.
For O=C(Nc1cn[nH]c1)NC1CCN(c2ccccc2OC(F)F)C1 (stereo not given) the result was Mtb heat-shock: -139.8%.
For Cc1ccc(S(=O)(=O)N2CCc3nc(C4CCNCC4)ncc3C2)cc1.Cl the result was Mtb growth Cornell: 4.42%; Mtb heat-shock: 36.79%.
For CCC(CC)NC(=O)c1cccnc1N1CCCC1c1ccccn1 (stereo not given) the result was Mtb growth Cornell: -22.16%; Mtb heat-shock: -37.68%.

Source: ChEMBL document CHEMBL3988442, “University of Dundee, Small-Polar-MMV Screening Library” (2021).